{
  "source": "the supplement of paper PMC3656093",
  "note": "± gives the standard deviation of the averaged measurements. Most of the lowest values are listed elsewhere, so they are rarer here than in the full data.",
  "data": [
    {"system": "BL2-NFkB-Luc", "test": "CD40L-induced NF-kB luciferase activity, plate-corrected, relative to DMSO (0) and IKK inhibitor VII (-100) controls (% normalized activity); higher = more NF-kB reporter activity (less inhibition)", "conditions": "9.4 µM; stimulus: tCD40L 64 ng/ml; 4.5 h", "protocol": "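BL2 B cells with a stable NF-kB response-element luciferase reporter (BL2-NFkB-Luc), 384-well. Cells were pre-incubated with compound at 9.4 uM for 1 h at 37 C, then stimulated with 64 ng/ml trimerized CD40L for 4.5 h; luciferase was read with Steady-Glo. Signal was normalised per plate in Genedata (median DMSO neutral control = 0, median IKK inhibitor VII at 50 uM = -100) with Assay Median plate-pattern correction; duplicate plates.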", "values": [
      {"smiles": "CN(C)CCOC(c1ccccc1)c1ccccc1.Cn1c(=O)c2[nH]c(Cl)nc2n(C(=O)O)c1=O", "CD40L-induced NF-kB luciferase activity": "-0.699 ± 2.5"}
    ]}
  ]
}
